Binding data for one molecule are collected here from publication PMC11094575.

Results are given in words; binding and its absence hold for the method and conditions named. Binding seen in cells or lysates may run through a third protein. Some entries that bind do so weakly or less than the wild type.

Assay [1] deals with T1, ID1 (human (endogenous in PAH sPASMCs)) (UniProt P41134).
T1 sequence: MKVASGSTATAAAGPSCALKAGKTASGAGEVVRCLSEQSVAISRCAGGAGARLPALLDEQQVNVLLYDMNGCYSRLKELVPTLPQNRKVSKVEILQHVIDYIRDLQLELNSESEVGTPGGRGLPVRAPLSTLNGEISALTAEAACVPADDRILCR
Briefly: proximity ligation; endogenous in-situ interactions in human PAH sPASMCs.

Assay [2] addresses T2, ID3 (human (endogenous in PAH sPASMCs)) (UniProt Q02535).
T2 sequence: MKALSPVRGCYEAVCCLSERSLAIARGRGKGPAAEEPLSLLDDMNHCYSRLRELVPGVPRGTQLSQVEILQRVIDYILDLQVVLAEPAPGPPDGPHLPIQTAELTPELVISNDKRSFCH
The assay is described as above.

B1: HES‐5 (protein, UniProt Q5TA89 1-166)
chain: MAPSTVAVELLSPKEKNRLRKPVVEKMRRDRINSSIEQLKLLLEQEFARHQPNSKLEKADILEMAVSYLKHSKAFVAAAGPKSLHQDYSEGYSWCLQEAVQFLTLHAASDTQMKLLYHFQRPPAAPAAPAKEPKAPGAAPPPALSAKATAAAAAAHQPACGLWRPW
For B1, the binding result in assay [1] and in assay [2] was “binds” throughout.
